# Assay results from patent US20260159546A1, “PHARMACEUTICAL COMPOSITION FOR TREATING SEPSIS INCLUDING DUAL ALARMIN-RECEPTOR-SPECIFIC TARGETING PEPTIDE” (Industry-University Cooperation Foundation Hanyang …, priority 2024, published 2026).
# Part of at least one peptide drawing is inferred or uncertain, most often the ends. Some entries repeat one wording, which the source may state once for all of them. Ends that are not written are not given here.
# Experiments:
# [1] = test system: alarmin (rHMGB1 or rPTX3) - receptor (HA-TLR4, Myc-RAGE, His-MD2) interactions; experiment: Cell-free immunoprecipitation assay, competitive inhibition of alarmin-receptor binding; settings: cell-free IP, 5 μg alarmin protein + 5 μg tagged receptor, 4 h
# [2] = test system: binding of recombinant HMGB1 or PTX3 to TLR4 / RAGE in BMDMs; experiment: Competition between rHMGB1 or PTX3 and peptides for receptors in BMDMs (IP/IB); type: cell-based, mouse; settings: rHMGB1 or PTX3 10 μg/mL, 3 h, increasing amounts of peptide
# [3] = test system: LPS-induced cytokine production in BMDMs; experiment: Cytokine ELISA in supernatant of LPS-treated BMDMs; type: cell-based, mouse; settings: LPS 100 ng/mL, 18 h
# Text: FIG. 2. Preparation of TLR4/MD2/RAGE-interacting motifs of HMGB1 or PTX3; • (A and B) Schematic diagram of HMGB1 (A) and PTX3 (B) domains. Glutathione s-transferase (GST)-tagged truncates including the TLR4-, RAGE-, or MD2-binding domains of HMGB1 or PTX3 were constructed. […] HEK293T cells transfected with the GST-tagged constructs in combination with HA-TLR4, Myc-RAGE or His-MD2 were confirmed by GST-pulldown. Western blots of WCLs and eluates after GST-pulldown are shown, using glyceraldehyde 3-phosphate dehydrogenase (GAPDH) as a loading control in WCLs. Based on the pulldown binding results, TLR4-, MD2-, and RAGE-targeted peptides were constructed and prepared as an H-T, H-R, P-T, or P-M peptide (indicated in panels A and B); • (C) BMDMs were incubated with the H-T, H-R, P-T, or P-M peptide at the indicated concentrations for 48 h, and then cell viability was measured by a cell viability assay. The data shown is the mean±SD of three experiments; • (D) Cell-free immunoprecipitation (IP) assay using the H-T, H-R, P-T, or P-M peptide. 5 μg alarmin protein (rHMGB1 or rPTX3) was mixed with 5 μg of each indicated tagged receptor protein (HA-TLR4, Myc-RAGE, and His-MD2), and treated for four hours as indicated to confirm the competitive inhibitory effect of peptides. They were immunoprecipitated with αFlag for two hours, separated by sodium dodecyl sulfate-polyacrylamide gel electrophoresis (SDS-PAGE), and evaluated by immunoblotting; • (E) Competition between rHMGB1 (top) or PTX3 (bottom) and the constructed peptides for their respective receptors. After treatment with rHMGB1 (top) or PTX3 (bottom) (10 μg/mL, 3 h) together with increasing amounts of the indicated peptides, IP was performed using BMDMs, IB was performed using αTLR4 or αRAGE; • (F) Decrease of LPS-induced cytokine production and rHMGB1 cytokine production induced by the H-T, P-T, P-M, or H-R peptide. TNF-α, IL-6, IL-12p40, and IL-10 levels in the supernatant of the indicated peptide-treated BMDMs, along with LPS (100 ng/mL, 18 h), were determined by ELISA. The data shown represents at least three independent experiments (n≥3), bars denote mean±SEM (***p<0.001, ****p<0.001), and significance was measured by two-way ANOVA. n.s=not significant;
# FIG. 4. Inhibitory effects of TMR-Lipo on TLR4/RAGE-mediated responses; • (A) LPS-primed BMDMs (primed with 100 ng/ml LPS for 12 h) were treated with TMR-Lipo (0.1, 1, 5 μM) for 12 h, and then co-IP was performed with αTLR4, αRAGE, or αMD2 and IB was performed with the indicated antibodies; • (B) Schematic representation of TLR4 and RAGE signaling pathways and therapeutic targeting of TMR-Lipo; • (C) BMDMs were treated with TMR-Lipo at the indicated concentrations (2 h), followed by treatment with LPS (100 ng/mL, 8 h). The amounts of HMGB1, PTX3, MyD88, IRAK, TRAF6, NF-κB, KRAS, and p-p38 were measured by IB in the WCL. GAPDH was used as a control. The data shown represents at least three independent experiments (n≥3), and bars denote mean±SEM (**p<0.01, ****p<0.001), and significance was measured by two-way ANOVA. n.s=not significant; • (D) BMDMs were treated with TMR-Lipo (0.1, 0.5, 5, 20, or 100 μM) in the presence LPS for 18 h. The secretion levels of TNF-α, IL-6, IL-12p40, and IL-10 were measured by ELISA. The data shown represents at least three independent experimental replicates (n≥3), and bars denote mean±SEM (**p<0.01, ****p<0.001), and significance was measured by two-way ANOVA. n.s=not significant; and
# The cytokine content in the supernatants of the cultured BMDMs and the serum of CLP-induced mice was measured using the uncoated ELISA Kit for the detection of TNF-α (88-7324-88, Invitrogen, USA), IL-6 (88-7064-88, Invitrogen), IL-10 (88-7105-88, Invitrogen). The IL-12p40 cytokine was measured using the OptEIA™ Mouse IL-12 p40 ELISA Set (555165, BD Biosciences, USA). All experiments were conducted following the guidelines provided by the manufacturer.
Sequence,blocking of alarmins-PRR interactions [1],binding of recombinant HMGB1 or PTX3 to their cognate receptors expressed in macrophages [2],IL-10 levels [3],"production of inflammatory cytokines (TNF-α, IL-6, IL-12p40) [3]"
FKDPNAPKRP [H-T],successfully blocked,inhibited,,
ALAAVLEELR [P-M],successfully blocked,inhibited,without changes,reduction
PAEARLTSAL [P-T],successfully blocked,inhibited,without changes,reduction
AAYRAKGKPD [H-R],successfully blocked,inhibited,without changes,reduction
